# Values quoted from earlier work in patent US6297230A, “Cyanoaziridines for treating cancer” (priority 2000, dated 2001).
# At least one read-out could not be matched to a standard name with certainty.
# System: MCF-7/D40 cells
# Conditions: cited from earlier work
smiles,measurement,value
O=C1c2c(O)ccc(O)c2C(=O)c2c(NCCNCCO)ccc(NCCNCCO)c21 [mitoxantrone],Fold resistance of MCF-7/D40 cells,over 40 fold
